From PubChem BioAssay AID1508600 (Functional Genomics Laboratory (NCATS/FGL), 2020)
Hit rate of the full screen: of about 53,000 sequences, about 3,700 (7%) were called active.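 How the source made its calls: active means gene knockdowns whose robust z-score for IL-1 alpha signal is at least 2 or at most -2, so actives lie on both sides; inactive means the rest.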 The list shows a part of the results.

Experiment: Components of the Cytosolic LPS Sensing Pathway: Gene Identification via Genome-wide siRNA Screen;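 further: robust z of the log signal after scaling to non-targeting control siRNA wells of the plate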
Conditions: RAW264.7 macrophages, IL-1a HTRF, actives lie on both sides, screened at 100 nM (by protocol), cells primed 5 h with Pam3CSK4 first
How it was run: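 Read-out: IL-1a HTRF on supernatant, divided by plate negative-control median ×100, log-transformed and converted to robust z-score. Cells were RAW264.7 given 100 nM siRNA, Pam3CSK4-primed 5 hours, then LipidA-transfected 24 hour.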

Row | Sequence | z-score
1 | GCUUAGUGACAUUCAAUCATT against Pde1c | inactive: -0.447
2 | GGAAAUGUAUCGCUUGAAUTT against Dna2 | inactive: -0.336
3 | GGACUAUUCACAAAGAAGATT against Dusp11 | inactive: -1.24
4 | GGACGAACCUUUAUACCAGTT against Arhgef15 | inactive: 0.452
5 | GACAGAGGAAUUUGUCUCCTT against Olfr1120 | active: 2.1
6 | GGAGGAUUGAGCAGUGUCUTT against Otos | inactive: -1.63
7 | GGCUGUGCAAGAUGUUCUATT against Gpr27 | active: 3.29
8 | GCAAAGGAUCGCUUGAAAATT against Mrpl40 | inactive: -1.15
9 | GCGAACCGAGAGUCUAUACTT against Gm9725 | inactive: 1.37
10 | GGAUGUGCGAUAUAAACCATT against Prl6a1 | inactive: 0.316
11 | GGCCUCAACAUGAUGACUGTT against Enox1 | inactive: 0.539
12 | GGAAGGAAACUACGAAGGUTT against Edn1 | inactive: -0.534
13 | GGUUGUAGAAGAUGGCUAUTT against Ppp1ca | inactive: 0.529
14 | GGCAAUGAUUAAAGGAAAATT against Olfr1436 | inactive: 0.716
15 | GGAUAACAUGAUCUCUACUTT against Klc4 | inactive: 0.792
16 | GGUGGACAUGAGGAAACGATT against Use1 | inactive: -1.38
17 | GGUGGAAUUUCAGCUCUACTT against Zcchc7 | inactive: 1.18
18 | GGUUCGAGUUUCAUACUAUTT against Padi4 | active: 2.56
19 | GGAGAUCACUAUGUUCUGATT against Ivd | inactive: 1.46
20 | GGAGACAGUUCAGAAGUGGTT against Glp2r | inactive: 0.0837
21 | GCUUGGAAACUCGUCUAAATT against Map1lc3b | inactive: 0.783
22 | GGCUGAGUAAUGAACCUCUTT against Gmnn | inactive: -0.672

Row | Sequence | z-score
23 | GGAGACGACAAAAAUCAGATT against Mrpl32 | inactive: 0.0471
24 | GCUAAGUCCCAGCUAAGUUTT against Szrd1 | inactive: 0.337
25 | CCAUUAUUCUAGUGUCCUATT against Olfr1368 | inactive: -0.753
26 | GCCUUGAAUACCACAUUUCTT against Arl10 | inactive: 1.23
27 | GGACAUCUGUGUUUAUUCATT against Tfcp2 | inactive: 0.0486
28 | GGUAGAGAUCAUCAAUGCATT against Ggt5 | inactive: 0.0858
29 | GGCAAUGAGACAAUUGUCATT against Cpe | inactive: -0.638
30 | GGUUGUACCUACAACAGAUTT against Tiprl | inactive: -0.773
31 | GGUACCUGAGGUAGAAAAGTT against Pnma3 | active: -2.5
32 | CCAAUUUGACCCAUACUAUTT against Crtc2 | inactive: 1.61
33 | UCAGGAUACAAUCAUCGCCTT against Olfr101 | inactive: 0.0316
34 | GGAUUUCAUCAAAGGUCUUTT against Kcnip4 | inactive: -0.174
35 | GUCCCACUCAGGAGAAUUUTT against Lrrc61 | inactive: 0.917
36 | GGCUUAUCUCUAAAUCCAATT against Afp | inactive: 1.52
37 | GGCAAUAAGCACCUGGGUATT against Serpini2 | inactive: 0.594
38 | CCAGACUAGAUAUCAUAUCTT against Nup54 | inactive: -0.272
39 | GGGAACCAGCCAGUUCAAGTT against Ap1g2 | inactive: 1.39
40 | GGCAGGAGAAAGGCCUUUUTT against Olfr535 | inactive: 0.123
41 | GGCUCCUAGCUGUUUCAGUTT against Hormad1 | inactive: -1.62
42 | GGAGAAGGUGAAACAAUUGTT against Ubap2l | inactive: -1.6
43 | GGUGCAGUUGAUGAUGAUUTT against Patl1 | inactive: -0.279
44 | GGUGACCAGCAAGUCAUGCTT against Chrdl1 | inactive: -0.663

Row | Sequence | z-score
45 | GGAUCCUGGAUAAUCUGGGTT against Plscr1 | inactive: -1.35
46 | GCGGAAGUGGAUUCUAGAGTT against Nat9 | inactive: 1.06
47 | GGUGUCUUCAAGAGUCAUUTT against Serp1 | inactive: 0.53
48 | GGUGAUCAUCAGUGAUAAGTT against Ttll9 | inactive: -0.77
49 | GGAAAGUCUACAUGUAUUATT against Enpp6 | inactive: -0.886
50 | CCUCAGAUAUUACAUACACTT against Srsf3 | inactive: -0.424
51 | GUUCUGAGAGGAAAAGACUTT against Olfr559 | inactive: -1.16
52 | GCAUUUUCUGCUCGAUAUUTT against Skil | inactive: 1.62
53 | UACACUAGUGCUGUUUACATT against Olfr192 | inactive: -0.804
54 | GCAGUGGUAACAGUGGCCATT against Reg3g | inactive: 0.682
55 | GGUAAACUCAAGUUUUCAGTT against Inpp5j | active: 2.36
56 | GGAAAUCAACAGCUCACAUTT against B3gnt9 | inactive: -0.327
57 | CCACUGAAAGGAACAACAATT against Col6a2 | inactive: 0.447
58 | GGUGUUUGUGAAGGAGCAGTT against Fam117a | active: 2.98
59 | GGGAAGAUGUGAUGUCUUUTT against Rab29 | inactive: -0.556
60 | GGUGAUGCUAGUGAUUGAUTT against Ngb | inactive: -1.34
61 | GGUGGCACUGAUGGAAUUGTT against Hsd17b12 | inactive: 1.25
62 | GACCUACAAGAAGUUCGGCTT against Nkx2-4 | inactive: 1.75
63 | GGUAGAGCUAAGUAAAGAGTT against Pwp1 | inactive: -0.977
64 | GCUAUGCAGUGACCACACUTT against C130046B21Rik | inactive: 1.67
65 | GGGAAAGUGUUCUCACUCATT against Zfp111 | inactive: 0.273
66 | GGCAAUGCACUUAUAACUCTT against Olfr118 | inactive: 0.389

Row | Sequence | z-score
67 | CGAACUAAGCCAAUCUCUGTT against Pcdha2 | inactive: 0.175
68 | GGACUACUCUGCCAGAUGGTT against Fam71f1 | inactive: 0.0252
69 | GCUGACCAUGGAGUAUAACTT against Ccdc39 | inactive: -0.56
70 | GGCCAACACUCAGAAAAGGTT against Zfp474 | inactive: 1.59
71 | GGAGAAGCAGAUUCUUCAATT against Calhm6 | inactive: -0.0547
72 | GCCAUCUACUCUUUAAAUATT against Pdha1 | inactive: 0.351
73 | GGUCAAAAUUGAAUAUCCATT against Slc52a2 | inactive: -0.0461
74 | GAUAAAGGAUACCUCAGUGTT against Scrt1 | inactive: -0.721
75 | CCAACAUAUUGUUCGUCGGTT against Slc13a2 | inactive: -0.59
76 | GCUACAGAAACCCGGGUAGTT against Jsrp1 | inactive: -1.46
77 | CCUCCUUGUGGCAUAAUGATT against Gcc2 | inactive: 0.267
78 | GCAUUCCUCAUACUUACUGTT against Olfr671 | inactive: 0.574
79 | CCUCAUUUUAGUCGUAGAATT against Syt11 | inactive: -0.345
80 | GCCUUCGACAUAGAGUACCTT against Eid2 | inactive: -0.129
81 | GGACCCUGCUUUUUAAAAATT against Harbi1 | inactive: 0.293
82 | GCCAGCGACCUUUAGUACATT against Cmtm1 | active: 2.08
83 | GGUCACUGUAAAAUGAACCTT against Odf2 | inactive: 1.48
84 | GGAAACUGAAGGAGGUACGTT against Ush1c | inactive: 0.901
85 | GGCCGACCAGCUGUAUAAGTT against Pdha2 | inactive: -0.456
86 | GGAAUGCUACAACUCAAAATT against Ptk2 | inactive: -0.861
87 | GGUCAUAGAGCUUUAGAUUTT against Nxpe2 | inactive: 1.16
88 | GGAAGAUUUACAGAUUCAATT against Lta4h | inactive: 0.534

Row | Sequence | z-score
89 | GGAACACAUGCUAAGCAGATT against 1110032A03Rik | inactive: 0.318
90 | GCUCCUCGUUCCACACAUCTT against Alox12 | inactive: -1
91 | GGUAUACGUCUGAUAAUGATT against Aspm | inactive: -0.747
92 | GGUAAUGAUUUGUUAACAGTT against Abhd17b | inactive: -0.442
93 | CCUCACUGUUUUACACCUUTT against Olfr1152 | inactive: 0.679
94 | GGAAGUGGACCUGAGUGACTT against Taf6 | inactive: -0.887
95 | GGUCUUUAACAACAUUGGATT against Scyl2 | inactive: -0.195
96 | GGCUUCCUGUUUGUUUGGATT against Gstp3 | inactive: -0.216
97 | CCUGAUUGACGACAGUAAGTT against Mcrs1 | inactive: 0.519
98 | CCCUAGUUUGAAUGUAAUATT against Npm2 | inactive: -0.537
99 | CCUGUUUGAGAUAUUUGAATT against Npnt | inactive: -0.856
100 | GCUGAUCGAGUAGCUAUUATT against Cse1l | inactive: -0.719
101 | CCCUUAUCACAUGUGUGGATT against Wdr74 | inactive: -0.664
102 | GGCAGAGAAUGGAAGAGAUTT against Ptma | inactive: 0.537
103 | GGAGUUCAAGAGCACAAAUTT against Atp4a | inactive: 1.18
104 | GCUUAAAACUUCACGAGGATT against Ppp1r3c | inactive: -0.262
105 | GGGAGGAAGAUGAUCCGGUTT against Pigyl | inactive: 0.427
106 | GCCUUAAGAGAUGUAUUUCTT against Vmn1r33 | inactive: -0.042
107 | GGAGGAAAGUUGUAUUUGATT against Nudt7 | inactive: 0.148

Given as a markdown table: entries from further up.

| Row | Sequence | z-score |
| --- | --- | --- |
| 103 | GGAGUUCAAGAGCACAAAUTT against Atp4a | inactive: 1.18 |
| 104 | GCUUAAAACUUCACGAGGATT against Ppp1r3c | inactive: -0.262 |
| 105 | GGGAGGAAGAUGAUCCGGUTT against Pigyl | inactive: 0.427 |
